± gives the standard deviation of the averaged measurements. Differences between knockout arms are mostly noise.
System: BT-20
Assay: relative cell number vs DMSO control (72 h) (% of DMSO); higher = less growth inhibition (more cells)
Experimental: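 QMAP-Seq: a pool of 5 breast cancer cell lines (ZR-75-1, SKBR3, HCC-38, MDA-MB-231, BT-20), each carrying 12 doxycycline-inducible Cas9 sgRNA perturbations (11 knockouts plus non-targeting sgNT), was treated with compounds for 72 h at four 10-fold doses (10 nM-10 uM or 1 nM-1 uM range). Barcodes were amplified and sequenced, and cell number was interpolated from 293T spike-in standard curves. The result is expressed as % of the median of DMSO wells. Two biological replicates.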

CCNC(=O)c1noc(-c2cc(C(C)C)c(O)cc2O)c1-c1ccc(CN2CCOCC2)cc1 [NVPAUY922]
Conditions | relative cell number
sgRNA knockout: sgATF3, 1 nM | 108 ± 23
sgRNA knockout: sgATF3, 10 nM | 81.5 ± 4
sgRNA knockout: sgATF3, 100 nM | 40.5 ± 5.8
sgRNA knockout: sgATF3, 1000 nM | 38.622 ± 0.0059
sgRNA knockout: sgATF4, 1 nM | 108 ± 9
sgRNA knockout: sgATF4, 10 nM | 84.6 ± 3.4
sgRNA knockout: sgATF4, 100 nM | 48.3 ± 2.2
sgRNA knockout: sgATF4, 1000 nM | 47.1 ± 0.74
sgRNA knockout: sgATF6, 1 nM | 101 ± 32
sgRNA knockout: sgATF6, 10 nM | 87.6 ± 4.3
sgRNA knockout: sgATF6, 100 nM | 40.6 ± 5.2
sgRNA knockout: sgATF6, 1000 nM | 31.5 ± 3.3
sgRNA knockout: sgATG7, 1 nM | 99.5 ± 31
sgRNA knockout: sgATG7, 10 nM | 81.4 ± 13
sgRNA knockout: sgATG7, 100 nM | 46.1 ± 1.9
sgRNA knockout: sgATG7, 1000 nM | 31.4 ± 0.76
sgRNA knockout: sgERN1, 1 nM | 108 ± 12
sgRNA knockout: sgERN1, 10 nM | 75.8 ± 3.6
sgRNA knockout: sgERN1, 100 nM | 37.9 ± 3.1
sgRNA knockout: sgERN1, 1000 nM | 39.5 ± 2.1
sgRNA knockout: sgHSF1, 1 nM | 102 ± 30
sgRNA knockout: sgHSF1, 10 nM | 81.7 ± 4.9
sgRNA knockout: sgHSF1, 100 nM | 42.9 ± 4.3
sgRNA knockout: sgHSF1, 1000 nM | 37 ± 3.5
sgRNA knockout: sgHSF2, 1 nM | 107 ± 48
sgRNA knockout: sgHSF2, 10 nM | 81.9 ± 3.2
sgRNA knockout: sgHSF2, 100 nM | 41.3 ± 4.6
sgRNA knockout: sgHSF2, 1000 nM | 43.8 ± 12
sgRNA knockout: sgKEAP1, 1 nM | 124 ± 12
sgRNA knockout: sgKEAP1, 10 nM | 76.4 ± 6.7
sgRNA knockout: sgKEAP1, 100 nM | 42.7 ± 5.2
sgRNA knockout: sgKEAP1, 1000 nM | 36.1 ± 2.9
sgRNA knockout: sgNFE2L2, 1 nM | 109 ± 26
sgRNA knockout: sgNFE2L2, 10 nM | 90.3 ± 14
sgRNA knockout: sgNFE2L2, 100 nM | 45.4 ± 1.4
sgRNA knockout: sgNFE2L2, 1000 nM | 29.98 ± 0.099
sgRNA knockout: sgSLC35F2, 1 nM | 99.8 ± 29
sgRNA knockout: sgSLC35F2, 10 nM | 87.4 ± 9.8
sgRNA knockout: sgSLC35F2, 100 nM | 42.2 ± 5.5
sgRNA knockout: sgSLC35F2, 1000 nM | 36.3 ± 3.6
sgRNA knockout: sgXBP1, 1 nM | 120 ± 27
sgRNA knockout: sgXBP1, 10 nM | 93.81 ± 0.58
sgRNA knockout: sgXBP1, 100 nM | 46 ± 7.6
sgRNA knockout: sgXBP1, 1000 nM | 37.1 ± 2

CN1CCc2c(c3ccccc3n2Cc2ccc(C(=O)NO)cc2)C1 [TubastatinA]
Conditions | relative cell number
sgRNA knockout: sgATF3, 10 nM | 92 ± 4.7
sgRNA knockout: sgATF3, 100 nM | 84.6 ± 6.2
sgRNA knockout: sgATF3, 1000 nM | 113 ± 2.8
sgRNA knockout: sgATF3, 10000 nM | 75.6 ± 19
sgRNA knockout: sgATF4, 10 nM | 89.9 ± 16
sgRNA knockout: sgATF4, 100 nM | 98.8 ± 16
sgRNA knockout: sgATF4, 1000 nM | 111 ± 15
sgRNA knockout: sgATF4, 10000 nM | 83.9 ± 6.2
sgRNA knockout: sgATF6, 10 nM | 101 ± 6
sgRNA knockout: sgATF6, 100 nM | 74.8 ± 4.6
sgRNA knockout: sgATF6, 1000 nM | 106 ± 7.4
sgRNA knockout: sgATF6, 10000 nM | 79.06 ± 0.37
sgRNA knockout: sgATG7, 10 nM | 95.5 ± 10
sgRNA knockout: sgATG7, 100 nM | 87.5 ± 2
sgRNA knockout: sgATG7, 1000 nM | 104.3 ± 0.32
sgRNA knockout: sgATG7, 10000 nM | 82.8 ± 5.9
sgRNA knockout: sgERN1, 10 nM | 98.9 ± 8.2
sgRNA knockout: sgERN1, 100 nM | 93.1 ± 12
sgRNA knockout: sgERN1, 1000 nM | 96.58 ± 0.48
sgRNA knockout: sgERN1, 10000 nM | 73.1 ± 6.8
sgRNA knockout: sgHSF1, 10 nM | 88.6 ± 19
sgRNA knockout: sgHSF1, 100 nM | 88.45 ± 0.46
sgRNA knockout: sgHSF1, 1000 nM | 98.6 ± 12
sgRNA knockout: sgHSF1, 10000 nM | 86.6 ± 24
sgRNA knockout: sgHSF2, 10 nM | 71.3 ± 25
sgRNA knockout: sgHSF2, 100 nM | 76.5 ± 17
sgRNA knockout: sgHSF2, 1000 nM | 102 ± 27
sgRNA knockout: sgHSF2, 10000 nM | 88 ± 14
sgRNA knockout: sgKEAP1, 10 nM | 87.9 ± 13
sgRNA knockout: sgKEAP1, 100 nM | 84.7 ± 8.8
sgRNA knockout: sgKEAP1, 1000 nM | 94.7 ± 22
sgRNA knockout: sgKEAP1, 10000 nM | 80.7 ± 3.2
sgRNA knockout: sgNFE2L2, 10 nM | 83.4 ± 15
sgRNA knockout: sgNFE2L2, 100 nM | 66.7 ± 8.6
sgRNA knockout: sgNFE2L2, 1000 nM | 82.2 ± 11
sgRNA knockout: sgNFE2L2, 10000 nM | 83.4 ± 18
sgRNA knockout: sgSLC35F2, 10 nM | 77 ± 8.7
sgRNA knockout: sgSLC35F2, 100 nM | 84.7 ± 30
sgRNA knockout: sgSLC35F2, 1000 nM | 96.7 ± 16
sgRNA knockout: sgSLC35F2, 10000 nM | 72.6 ± 0.82
sgRNA knockout: sgXBP1, 10 nM | 80.8 ± 5.3
sgRNA knockout: sgXBP1, 100 nM | 85.8 ± 14
sgRNA knockout: sgXBP1, 1000 nM | 102 ± 4.9
sgRNA knockout: sgXBP1, 10000 nM | 79.2 ± 7.5

N.N.[Cl][Pt][Cl] [Cisplatin]
Conditions | relative cell number
sgRNA knockout: sgATF3, 10 nM | 104 ± 4.8
sgRNA knockout: sgATF3, 100 nM | 80.7 ± 7.5
sgRNA knockout: sgATF3, 1000 nM | 119 ± 0.32
sgRNA knockout: sgATF3, 10000 nM | 105.4 ± 1
sgRNA knockout: sgATF4, 10 nM | 104 ± 19
sgRNA knockout: sgATF4, 100 nM | 92.7 ± 0.98
sgRNA knockout: sgATF4, 1000 nM | 108 ± 2
sgRNA knockout: sgATF4, 10000 nM | 95.3 ± 4
sgRNA knockout: sgATF6, 10 nM | 103 ± 16
sgRNA knockout: sgATF6, 100 nM | 86.2 ± 18
sgRNA knockout: sgATF6, 1000 nM | 94.9 ± 15
sgRNA knockout: sgATF6, 10000 nM | 111 ± 5.8
sgRNA knockout: sgATG7, 10 nM | 113 ± 9.2
sgRNA knockout: sgATG7, 100 nM | 88.8 ± 15
sgRNA knockout: sgATG7, 1000 nM | 96.4 ± 10
sgRNA knockout: sgATG7, 10000 nM | 107 ± 22
sgRNA knockout: sgERN1, 10 nM | 112 ± 11
sgRNA knockout: sgERN1, 100 nM | 73.91 ± 0.63
sgRNA knockout: sgERN1, 1000 nM | 96.4 ± 10
sgRNA knockout: sgERN1, 10000 nM | 117 ± 5.7
sgRNA knockout: sgHSF1, 10 nM | 104 ± 5.3
sgRNA knockout: sgHSF1, 100 nM | 79.3 ± 5.3
sgRNA knockout: sgHSF1, 1000 nM | 93.5 ± 2
sgRNA knockout: sgHSF1, 10000 nM | 93 ± 6.8
sgRNA knockout: sgHSF2, 10 nM | 108 ± 17
sgRNA knockout: sgHSF2, 100 nM | 75.9 ± 19
sgRNA knockout: sgHSF2, 1000 nM | 102 ± 10
sgRNA knockout: sgHSF2, 10000 nM | 95 ± 4.3
sgRNA knockout: sgKEAP1, 10 nM | 116 ± 21
sgRNA knockout: sgKEAP1, 100 nM | 78.4 ± 7.2
sgRNA knockout: sgKEAP1, 1000 nM | 93.5 ± 5.5
sgRNA knockout: sgKEAP1, 10000 nM | 92.3 ± 8.4
sgRNA knockout: sgNFE2L2, 10 nM | 104 ± 11
sgRNA knockout: sgNFE2L2, 100 nM | 101 ± 12
sgRNA knockout: sgNFE2L2, 1000 nM | 108 ± 14
sgRNA knockout: sgNFE2L2, 10000 nM | 112 ± 3.9
sgRNA knockout: sgSLC35F2, 10 nM | 108 ± 28
sgRNA knockout: sgSLC35F2, 100 nM | 75.8 ± 4.9
sgRNA knockout: sgSLC35F2, 1000 nM | 93.2 ± 20
sgRNA knockout: sgSLC35F2, 10000 nM | 117 ± 15
sgRNA knockout: sgXBP1, 10 nM | 107 ± 5.5
sgRNA knockout: sgXBP1, 100 nM | 73.2 ± 3.5
sgRNA knockout: sgXBP1, 1000 nM | 103 ± 2.3
sgRNA knockout: sgXBP1, 10000 nM | 108 ± 2.5
